Experimental data reported in publication PMC11406361, “Several orphan solute carriers functionally identified as organic cation transporters: Substrates specificity compared with known cation transporters” (The Journal of Biological Chemistry, 2024).

The chains behind the UniProt entries cited, without tags or fusion partners. Where a name states a change or a piece, a line headed by the entry shows the natural chain unless it says otherwise.
UniProt Q8N808: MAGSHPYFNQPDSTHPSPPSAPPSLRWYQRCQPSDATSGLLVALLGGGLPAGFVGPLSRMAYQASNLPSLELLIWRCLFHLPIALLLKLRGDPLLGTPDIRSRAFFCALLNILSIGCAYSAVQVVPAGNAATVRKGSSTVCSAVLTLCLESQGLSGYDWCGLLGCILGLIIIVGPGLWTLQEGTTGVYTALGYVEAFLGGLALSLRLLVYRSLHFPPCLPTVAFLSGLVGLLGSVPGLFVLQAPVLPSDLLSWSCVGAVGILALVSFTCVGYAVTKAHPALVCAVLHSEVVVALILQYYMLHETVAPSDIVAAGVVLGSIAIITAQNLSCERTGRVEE

Molecular target: SLC35G3 (Homo sapiens, UniProt Q8N808)
Assay: Uptake ratio screen, SLC35G3-overexpressing HEK293 over empty vector cells
Assay type: cell-based
Design: by amplifying the entire gene-of-interest within the HEK293 genome via a long-range PCR
Details: 2.5 μM substrate, 2 min

## CN1CCC[C@@H]1CCO[C@](C)(c1ccccc1)c1ccc(Cl)cc1 [Clemastine]
  Uptake data for SLC35G3, mean value (fold-increase over empty vector control): 1.22
